The values that follow come from US20130102624A1 (priority 2011, published 2013).

Some results are limits rather than exact numbers.

The series in a line: urinary excretion of thiamine metabolites TMA and PMA and TMA/PMA ratio (LC-MS/MS of urine).

As to `Cc1ncsc1CCO` [TMA], the “Increase in the ratio of TMA/PMA” value (early stages of thiamine deficiency (FIG. 4)) is on record as greater than 150 fold. Under “urine, when empty calories are consumed”, the “Increase in the ratio of the thiazole and pyrimidine metabolites” value is “more than 100 fold”.
